Record: PubChem BioAssay AID720505 (Drosophila RNAi Screening Center, 2013)

- Aim: 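Genes needed for store-operated calcium entry in fly cells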 (primary screen)
- Cells: Drosophila S2R+ cells
- Reagent: long dsRNA against Drosophila genes
- Challenge: thapsigargin (2 µM) in calcium-free buffer to empty internal stores, then 2 mM calcium added back
- Detection: 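Fluo-4 signal in 384-well plates read on a FLIPR after thapsigargin (2 µM, calcium-free) store depletion and 2 mM calcium add-back; unnormalised mean endpoint per well; screen run twice, selected wells retested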
- Direction: calcium signal and retest calcium signal: higher = more calcium entry after store depletion
- Call rule: 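Knock-downs counted as hits when calcium entry dropped relative to STIM1 positive and Rho1 negative controls present on each plate; roughly 1500 genes called, with reductions of differing size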
- Meaning of the calls: active = called as lowering calcium entry; inactive = not called
The screen tested about 20,000 reagents; below is a random part of those that have a named target and a result. Over the whole deposit, about 2,100 (10%) are marked active. 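Raw plate signals without normalisation; calls rest on control-based scores that were not deposited; replicate 2 separates called from uncalled poorly.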 A number with no mark means an inactive call. Names joined by + are all predicted targets of the reagent. No sequences are given here. The record does not give: the amount of reagent, the time to read-out.

gene | DRSC id | calcium signal, replicate 1 | calcium signal, replicate 2 | retest calcium signal, replicate 1 | retest calcium signal, replicate 2
Pfdn1 (Prefoldin 1) | DRSC02325 | 146 | 89.9 | – | –
Sec71 (Secretory 71) | DRSC01893 | 133 | 102 | – | –
Mes2 (Mesoderm-expressed 2) | DRSC11632 | 66.6 (active) | 143 | 126 | 127
Ir60d (Ionotropic receptor 60d) | DRSC04218 | 121 | 188 | – | –
AdamTS-B (ADAM metallopeptidase with thrombospondin type 1 motif B) | DRSC18346 | 120 | 92.9 | – | –
Rae1 | DRSC04577 | 89.7 | 95.7 | – | –
CG17528 | DRSC07761 | 75.5 | 143 | – | –
CG32563 | DRSC19934 | 93.7 | 103 | – | –
EbpII (Ejaculatory bulb protein II) | DRSC04637 | 150 | 76.1 | – | –
EbpII (Ejaculatory bulb protein II) | DRSC22484 | 145 | 220 | – | –
CG33203 | DRSC14874 | 164 | 127 | – | –
CG33203 | DRSC14876 | 141 | 147 | – | –
CG33203 | DRSC14877 | 145 | 166 | 89 | 79.8
trx (trithorax) | DRSC17089 | 126 | 117 | – | –
CG9386 | DRSC16485 | 109 | 165 | – | –
dmGlut (Dietary and metabolic glutamate transporter) | DRSC02835 | 104 | 96.6 | – | –
Lcp1 (Larval cuticle protein 1) | DRSC07455 | 117 | 98.5 | – | –
RpL38 (Ribosomal protein L38) | DRSC07818 | 46.5 (active) | 90.4 | – | –
Amy-d (Amylase distal) | DRSC05919 | 133 | 143 | – | –
SMSr (Sphingomyelin synthase related) | DRSC10998 | 133 | 123 | – | –
SMSr (Sphingomyelin synthase related) | DRSC10999 | 123 | 68.2 | – | –
Scp1 (Sarcoplasmic calcium-binding protein 1) | DRSC20799 | 84.6 | 9017 | – | –
Scp1 (Sarcoplasmic calcium-binding protein 1) | DRSC20803 | 121 | 10576 | – | –
Scp1 (Sarcoplasmic calcium-binding protein 1) | DRSC20806 | 179 | 90.5 | – | –
CG12016 + Dpm2 | DRSC08224 | 120 | 109 | – | –
RNaseP:RNA (Ribonuclease P RNA) | DRSC22967 | 95.8 | 119 | – | –
CG33469 | DRSC22900 | 102 | 178 | – | –
CG33461 | DRSC22892 | 91.6 | 158 | – | –
CG2217 + CG42740 | DRSC14141 | 97.7 | 163 | – | –
CG14079 | DRSC10083 | 71 (active) | 145 | – | –
grau (grauzone) | DRSC04691 | 182 | 96.7 | – | –
CG5446 | DRSC02862 | 116 | 142 | – | –
CG15605 | DRSC06558 | 98.9 | 116 | – | –
CG14818 | DRSC18548 | 116 | 145 | – | –

2 entries from above, sorted by “calcium signal, replicate 2”, high to low.
gene | DRSC id | calcium signal, replicate 1 | calcium signal, replicate 2 | retest calcium signal, replicate 1 | retest calcium signal, replicate 2
CG32563 | DRSC19934 | 93.7 | 103 | – | –
EbpII (Ejaculatory bulb protein II) | DRSC04637 | 150 | 76.1 | – | –
